In publication PMC5494301, “Functions of tryptophan residues in EWGWS insert of Plasmodium falciparum enolase” (FEBS Open Bio, 2017):
No constants are given. Whether binding was seen depends on the method and setting. For some assays here: Where a sequence is shown, tags or fusion partners need not be part of it.

Key:
[1] = biological target: W105,107K variant of recombinant P. falciparum enolase, GST tag removed (Plasmodium falciparum) (UniProt Q27727); test: SEC; proteins without the GST tag; Superdex‐200 HiLoad 16/600, 1–2 mg of protein in 2 mL buffer; 50 mM Tris‐HCl, 150 mM NaCl, 5 mM MgCl2 pH 7.5; dimer to monomers; both purified
[2] = biological target: W105,107A variant of recombinant P. falciparum enolase, GST tag removed (Plasmodium falciparum) (UniProt Q27727); test: as above

Molecule | binding [1] | binding [2]
W105,107K variant of recombinant P. falciparum enolase, GST tag removed (from UniProt Q27727 1-446) (enzyme) | no binding (tested: 1–2 mg of protein in 2 mL buffer) | –
W105,107A variant of recombinant P. falciparum enolase, GST tag removed (enzyme, Plasmodium falciparum, UniProt Q27727 1-446, looked up) MAHVITRINAREILDSRGNPTVEVDLETNLGIFRAAVPSGASTGIYEALELRDNDKSRYLGKGVQKAIKNINEIIAPKLIGMNCTEQKKIDNLMVEELDGSKNEAGASKSKLGANAILAISMAVCRAGAAPNKVSLYKYLAQLAGKKSDQMVLPVPCLNVINGGSHAGNKLSFQEFMIVPVGAPSFKEALRYGAEVYHTLKSEIKKKYGIDATNVGDEGGFAPNILNANEALDLLVTAIKSAGYEGKVKIAMDVAASEFYNSENKTYDLDFKTPNNDKSLVKTGAQLVDLYIDLVKKYPIVSIEDPFDQDDWENYAKLTAAIGKDVQIVGDDLLVTNPTRITKALEKNACNALLLKVNQIGSITEAIEACLLSQKNNWGVMVSHRSGETEDVFIADLVVALRTGQIKTGAPCRSERNAKYNQLLRIEESLGNNAVFAGEKFRLQLN | – | no binding (tested: ~ 2–3 mg·mL^−1)
